Reference: US20040171585

How the values were obtained:
[1] = test system: HNF-4α (full length); test: activity assay; conditions: in vitro transcription of G-less cassette with three C3P copies, HeLa nuclear extract; recombinant HNF-4α (tag not restated), approaches saturation at 200 ng; purified recombinant protein; protein details: His6
[2] = test system: HNF-4α (full length); test: EMSA; conditions: binding rises with His-HNF-4α concentration; activated by C12-C16 saturated acyl-CoAs (maximal with myristoyl-CoA), inhibited by stearoyl-CoA; purified recombinant protein; protein details: His6

GCAGGTGACCTTTGCCCAGCGCC (double strand) [C3P element of apo CIII promoter (-87/-66)]
activity on this sequence [1]: active
binding result [2]: binds

For at least one entry, the source does not settle the construct or the ends of the probe.
